# From PubChem BioAssay AID493014 (National Center for Advancing Translational Sciences (NCATS), 2011)
# The other results are listed elsewhere or left out. The main result of the screen is listed elsewhere. These columns were measured beside it and carry no call. Most of these compounds were active or inconclusive in the main read-out, so they are no random draw. The note in brackets gives the kind of curve behind each potency; many fits are weak.
# Test: qHTS Assay to Find Inhibitors of Chronic Active B-Cell Receptor Signaling
# Conditions: ABC-DLBCL IkBa-CBG/CBR reporter, luminescence ratio (green luciferase fused to IkBa over red control in TMD8 lymphoma cells), 4 h
# How it was run: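 Doxycycline induced both beetle luciferases in TMD8 lymphoma cells; IKK-driven degradation limits the IkappaBalpha-fused green signal, while red luminescence normalises for cell number and nonspecific effects. Compounds tested up to 46 uM, 4 hrs.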
# [1] = measured here: CBR red luminescence, cell number
# [2] = measured here: IkBa-CBG green luminescence
SMILES,AC50 [1],AC50 [2]
CN1c2ccccc2C(C)(C)C12CCCC(=O)N2 (stereo not given),"3.98 µM [falling, partial curve, poor fit]",
Cc1cc2c(c(C)c1CCO)C(=O)[C@H](C)C2,"0.231 µM [falling, partial curve, poor fit]",
Cn1nc(/C=C/c2ccccc2)ccc1=O,"14.1 µM [rising, single point]",
Cc1cc(C)cc(NC(=O)CN2CCCN(S(=O)(=O)c3ccc(Br)s3)CC2)c1,"2.91 µM [falling, full curve, poor fit]",
CCOC(=O)C(=CNc1cc(Cl)c(-c2ccco2)c(Cl)c1)C(=O)OCC,"31.6 µM [falling, single point]",
O=S(=O)(c1ccc(F)cc1)N1CN(Cc2ccco2)c2nc3ccccc3nc21,"32.6 µM [falling, single point]",
Cc1c(O)nc(SCC(=O)Nc2cccc(C(F)(F)F)c2)n(-c2ccccc2)c1=O,"11.2 µM [falling, partial curve, poor fit]",
CCc1ccc(CN(C)C(=O)c2cc(COc3cccc4cnccc34)on2)cc1,"10 µM [falling, partial curve]",
Cc1ccc(-c2nn(-c3ccccc3)cc2/C=C/C(=O)Nc2nccs2)cc1,"5.17 µM [falling, partial curve, poor fit]",
Cc1cc(-c2n[nH]c(=S)n2/N=C/c2cc([N+](=O)[O-])ccc2Cl)n[nH]1,"25.9 µM [falling, single point]","29.1 µM [falling, single point]"
O=C(CCc1ccccc1)Nc1ccc(N2CCOCC2)c(Cl)c1,"1.46 µM [rising, full curve]",
Cc1ccc(O)c(C(=O)c2coc(=N)c(C(=O)NC(C)C)c2)c1,"0.103 µM [falling, full curve, poor fit]",
CCOC(=O)c1c(C)[nH]c(C(=O)CSc2nnnn2-c2ccc(C)cc2)c1C,"16.4 µM [rising, single point]",
CCCC/C=C1\CCc2c([nH]c3ccccc23)C1=O,"35.5 µM [falling, single point]",
Cc1cc(OC(C)C(=O)N/N=C/CC(C)c2ccccc2)ccc1Cl (stereo not given),"23.1 µM [rising, single point]",
CCCCn1c(=S)[nH]c2c(oc3ccc(Cl)cc32)c1=O,"1.84 µM [falling, full curve]",
CCC(Oc1ccccc1)C(=O)Nc1ccccc1N1CCCC1 (stereo not given),"35.5 µM [rising, single point]",
Cc1cccc2sc(NNC(=O)c3cc(-c4cccs4)nc4ccccc34)nc12,"3.66 µM [rising, single point]",
O=C(NCC1CCCCC1)c1cccc(-c2ccc(O)cc2)c1,"35.5 µM [falling, single point]",
NS(=O)(=O)c1cccc(NS(=O)(=O)c2ccc(/C=C/C(=O)OCC(=O)c3ccc(Br)cc3)cc2)c1,"31.6 µM [falling, single point]",
CCn1c(=O)c(C(=O)NNC(=O)c2cccc(Cl)c2)c(O)c2ccccc21,"5.01 µM [falling, full curve]",

SMILES,AC50 [1],AC50 [2]
Cc1ccc(-n2ncc3c(N(C)C)ncnc32)cc1Cl,"0.794 µM [rising, full curve, poor fit]",
COc1ccc(-n2c(Cc3cccn3C)nnc2SCC(=O)NCc2ccccc2Cl)cc1,"25.9 µM [falling, partial curve, poor fit]",
O=C(NC1CCCC1)c1ccc(Br)c(S(=O)(=O)N2CCCCC2)c1,"35.5 µM [rising, single point]",
CC(=O)Nc1cccc(NC(=O)c2ccc3c(c2)CCN3S(C)(=O)=O)c1,"5.62 µM [falling, partial curve, poor fit]",
O=C(CSc1nnc(-c2ccc(F)cc2)c2ccccc12)Nc1ccccc1Cl,"20.6 µM [falling, single point]",
CCOc1ncccc1C(=O)Nc1cccc(-c2nnc3n2CCCCC3)c1,"14.1 µM [falling, partial curve, poor fit]",
CCc1nc2ccccc2c(C(=O)OCC(=O)Nc2ccc(NC(C)=O)cc2)c1C,"23.1 µM [falling, single point]",
COc1ccc(NC(=O)C(=O)Nc2cccc3ccccc23)c(OC)c1,"0.794 µM [falling, full curve]",
O=C(NNC(=S)Nc1ccccc1)c1ccc(O)cc1,"7.08 µM [falling, full curve]",
CN1CCc2c(sc(NC(=O)c3ccc([N+](=O)[O-])o3)c2C(N)=O)C1,"0.447 µM [rising, full curve]",
Cc1ccc(S(=O)(=O)NNC(=O)c2sc3nc(C)cc(C)c3c2-n2cccc2)cc1,"16.4 µM [falling, partial curve, poor fit]",
C=CCn1c(=O)c2c(C)c(C)sc2n2c(Nc3ccc(OC)cc3)nnc12,"3.16 µM [falling, single point]",
Brc1ccc(-c2nnc(-c3ccco3)o2)cc1,"0.178 µM [rising, full curve, poor fit]",
Cc1ccc(N(C(=O)c2csnn2)C(C(=O)NC2CCCCC2)c2ccco2)cc1 (stereo not given),"3.98 µM [falling, partial curve, poor fit]",
CN(CC(=O)Nc1ccc(Cl)c(C(F)(F)F)c1)C(=O)C1(c2ccccc2)CC1,"16.4 µM [falling, single point]","25.9 µM [rising, partial curve, poor fit]"
Cc1cc(C)cc(Oc2nc3ccccn3c(=O)c2/C=C(\C#N)C(=O)NC2CCS(=O)(=O)C2)c1 (stereo not given),"22.4 µM [falling, partial curve, poor fit]",
Cc1cc(C)cc(NC(=O)c2cccc(NC(=O)C3C4CC5OC(=O)C3C5C4)c2)c1 (stereo not given),"10.3 µM [falling, partial curve, poor fit]",
O=C1c2ccccc2NC(c2ccco2)N1O (stereo not given),"4.11 µM [rising, single point]",
COC(=O)Nc1nc2ccc(C(=O)c3ccc(F)cc3)cc2[nH]1,,"2.82 µM [falling, partial curve, poor fit]"
Cc1ccc2nc(-c3ccc(N4C(=O)CC(N5CCN(CCO)CC5)C4=O)cc3)sc2c1 (stereo not given),"32.6 µM [falling, partial curve, poor fit]",
Cc1[nH]n(-c2ccc(Cl)cc2)c(=O)c1N=Nc1cccnc1,"1.12 µM [rising, full curve, poor fit]",

SMILES,AC50 [1],AC50 [2]
O=C(NN1C(=O)c2ccccc2C1=O)C1C2CCCCC21 (stereo not given),"11.6 µM [rising, partial curve]",
Cc1ccc(C(=O)NNC(=S)Nc2cccc3ccccc23)s1,"10 µM [falling, partial curve, poor fit]",
O=C(NCCN1C(=O)S/C(=C\c2ccc(F)cc2)C1=O)c1cccc(S(=O)(=O)N2CCOCC2)c1,"20.6 µM [falling, single point]",
CC1CN(c2ccc([N+](=O)[O-])cc2Cl)CCN1S(C)(=O)=O (stereo not given),"1.26 µM [falling, partial curve]",
COc1ccc(N(CC(=O)NCc2ccc(F)cc2)C(=O)Cn2nnc(-c3ccc(C)o3)n2)cc1OC,"2.82 µM [falling, single point]",
Cc1nn(-c2ncc(C(F)(F)F)cc2Cl)c(=O)n1-c1ccccc1Cl,"5.8 µM [rising, full curve, poor fit]",
O=C(Nc1nnc(C2CC2)s1)c1ccco1,"22.4 µM [falling, single point]",
CCc1ccc(C(=O)COC(=O)C(Cc2c[nH]c3ccccc23)NC(=O)c2ccc(CC)cc2)cc1 (stereo not given),"0.562 µM [rising, full curve, poor fit]",
CCN(C(=O)CSc1nc2cc(C(F)(F)F)ccc2n1Cc1ccccc1)C1CCS(=O)(=O)C1 (stereo not given),"2.06 µM [rising, partial curve, poor fit]",
Cc1ccccc1CC1(CO)CCCN(C(=O)c2cc(Cl)ccc2F)C1 (stereo not given),"35.5 µM [falling, partial curve, poor fit]",
COCCNC(=O)/C(C#N)=C/c1cn(CC(=O)NCc2ccco2)c2ccccc12,"6.31 µM [rising, single point]",
c1ccc2c(Cn3ccnc3)c[nH]c2c1,"20.6 µM [rising, single point]",
O=C(c1ccccc1)N1CCc2ccccc21,"23.1 µM [rising, partial curve, poor fit]",
COc1ccc(-c2csc(-n3ncc(C(=O)O)c3C(F)(F)F)n2)cc1,"7.94 µM [falling, partial curve]",
N#C/C(=C\c1ccc(-c2ccccc2)cc1)c1nc(-c2ccco2)cs1,"0.58 µM [rising, full curve, poor fit]",
CC1(C)Cc2c(sc3nc(-c4ccccc4)n(N)c(=O)c23)CO1,"10 µM [falling, partial curve, poor fit]",
O=C(/C=C/c1cccs1)N1CCc2ccccc21,"20.6 µM [falling, partial curve, poor fit]",
CCCc1cc(C(=O)Nc2sc3c(c2C#N)CCC3)no1,"5.8 µM [rising, partial curve, poor fit]",
CCCNC(=O)NC(=O)COC(=O)c1cccc(NS(=O)(=O)c2ccc(F)c(F)c2)c1,"29.1 µM [falling, single point]",
CCOCCCNC(=O)/C(C#N)=C/c1cc(Br)c(O)c(Br)c1,"15.8 µM [rising, single point]","11.2 µM [falling, single point]"

# Quoted from above, 3 compounds:
SMILES,AC50 [1],AC50 [2]
CCc1nc2ccccc2c(C(=O)OCC(=O)Nc2ccc(NC(C)=O)cc2)c1C,"23.1 µM [falling, single point]",
COc1ccc(NC(=O)C(=O)Nc2cccc3ccccc23)c(OC)c1,"0.794 µM [falling, full curve]",
O=C(NNC(=S)Nc1ccccc1)c1ccc(O)cc1,"7.08 µM [falling, full curve]",
